PubChem BioAssay AID1259308 – NCATS | 2017

Test: 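Candidate targets for better recombinant protein yield in mammalian cells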 (primary screen)
Cells: human HEK293 embryonic kidney cells stably expressing firefly luciferase (HEK-CMV-Luc2-Hygro)
Reagent: single siRNA against human genes, 0.8 pmol siRNA per well
Time to read-out: 72 h
Measured: 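Luciferase light (ONE-Glo) measured on one replicate plate set and viability (CellTiter-Glo) on the other, scaled to a negative control siRNA, with robust z-scores and luciferase per cell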
Direction: total luciferase, z-score and total luciferase, % of control: higher = more reporter protein produced; luciferase per cell, z-score: higher = more reporter output per viable cell; viable cells, % of control: higher = more viable cells
Rule for the call: 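Active when the median/MAD z-score for overall luciferase is greater than 3; a gene was taken forward for validation with new siRNAs if at least two of its three siRNAs passed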
Meaning of the calls: active = raised luciferase; inactive = no rise
The deposit covers about 59,000 reagents; this is a part drawn at random. Over the whole deposit, about 1,510 (2.6%) were called active. 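Calls use total luciferase alone and ignore viability, so some active siRNAs may act by altering cell number.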 A number with no mark means an inactive call. Reagents against one gene are numbered here. No sequences are given here.

no.	Gene	reagent	total luciferase, z-score	total luciferase, % of control	luciferase per cell, z-score	viable cells, % of control
1	SLC9A4	1	1.21	106	0.846	94.7
2	SLC9A4	2	-1.09	60.2	-1.73	106
3	SLC9A4	3	-0.435	73.2	-0.978	106
4	IGF2 (insulin like growth factor 2)	1	0.328	88.4	-0.0195	99.3
5	IGF2 (insulin like growth factor 2)	2	-0.935	63.3	-1.21	97.3
6	IGF2 (insulin like growth factor 2)	3	-0.66	68.8	1.46	52.3
7	CBLN4 (cerebellin 4 precursor)	1	-0.128	79.4	-0.199	93.4
8	CBLN4 (cerebellin 4 precursor)	2	2.03	122	1.98	81.1
9	CBLN4 (cerebellin 4 precursor)	3	-0.866	64.7	-0.394	80.2
10	MAGEH1 (MAGE family member H1)	1	-0.275	76.4	-0.933	109
11	MAGEH1 (MAGE family member H1)	2	-0.454	72.9	-0.66	96.9
12	MAGEH1 (MAGE family member H1)	3	2.38	129	1.32	102
13	LOC440386 (retired record)	1	2.35	129	1.72	91.3
14	LOC440386 (retired record)	2	-1.75	47.1	-0.307	57
15	LOC440386 (retired record)	3	1.15	105	1.08	88
16	UBE2L3 (ubiquitin conjugating enzyme E2 L3)	1	-0.0637	80.6	-0.0701	91.8
17	UBE2L3 (ubiquitin conjugating enzyme E2 L3)	2	-0.257	76.8	-0.417	95.8
18	UBE2L3 (ubiquitin conjugating enzyme E2 L3)	3	1.77	117	0.183	125
19	HDGFL3 (HDGF like 3)	1	-0.0208	81.5	-0.223	96.5
20	HDGFL3 (HDGF like 3)	2	-0.81	65.8	-0.231	78.1
21	HDGFL3 (HDGF like 3)	3	1.78	117	0.713	109
22	MITF (melanocyte inducing transcription factor)	1	0.479	91.4	0.585	87.6
23	MITF (melanocyte inducing transcription factor)	2	-0.243	77.1	0.263	80.3
24	MITF (melanocyte inducing transcription factor)	3	-0.728	67.4	-0.197	79.3
25	GTF2H5 (general transcription factor IIH subunit 5)	1	-1.68	48.4	-0.928	69.1
26	GTF2H5 (general transcription factor IIH subunit 5)	2	0.288	87.6	0.335	89.6
27	GTF2H5 (general transcription factor IIH subunit 5)	3	-0.472	72.5	-0.454	91.3

Ordered by “total luciferase, % of control” (low to high): some entries from above
Gene	reagent	total luciferase, z-score	total luciferase, % of control	luciferase per cell, z-score	viable cells, % of control
HDGFL3 (HDGF like 3)	2	-0.81	65.8	-0.231	78.1
UBE2L3 (ubiquitin conjugating enzyme E2 L3)	2	-0.257	76.8	-0.417	95.8
UBE2L3 (ubiquitin conjugating enzyme E2 L3)	1	-0.0637	80.6	-0.0701	91.8
HDGFL3 (HDGF like 3)	1	-0.0208	81.5	-0.223	96.5
UBE2L3 (ubiquitin conjugating enzyme E2 L3)	3	1.77	117	0.183	125

Further entries follow.
no.	Gene	reagent	total luciferase, z-score	total luciferase, % of control	luciferase per cell, z-score	viable cells, % of control
28	ZNF48 (zinc finger protein 48)	1	-1.4	54	-0.489	68.7
29	ZNF48 (zinc finger protein 48)	2	-0.617	69.6	-0.0546	78.9
30	ZNF48 (zinc finger protein 48)	3	1.39	109	1.78	76.5
31	SLC25A32	1	0.434	90.5	0.24	95
32	SLC25A32	2	-0.824	65.5	-0.684	87.6
33	SLC25A32	3	1.58	113	1.17	93
34	UNC93B1 (unc-93B1 regulator of TLR signaling)	1	0.478	91.4	2.83	48.5
35	UNC93B1 (unc-93B1 regulator of TLR signaling)	2	3.22 (active)	146	3.43	66.1
36	UNC93B1 (unc-93B1 regulator of TLR signaling)	3	1.02	102	1.62	74.5
37	ANKFN1 (ankyrin repeat and fibronectin type III domain containing 1)	1	0.519	92.2	0.501	90.3
38	ANKFN1 (ankyrin repeat and fibronectin type III domain containing 1)	2	0.299	87.8	0.447	87.3
39	ANKFN1 (ankyrin repeat and fibronectin type III domain containing 1)	3	0.72	96.2	0.613	91.5
40	C6orf15 (chromosome 6 open reading frame 15)	1	-0.146	79	-0.106	90.8
41	C6orf15 (chromosome 6 open reading frame 15)	2	0.684	95.5	0.532	92.8
42	C6orf15 (chromosome 6 open reading frame 15)	3	0.319	88.2	0.223	93
43	GUCA2B (guanylate cyclase activator 2B)	1	-0.264	76.6	0.0778	83.9
44	GUCA2B (guanylate cyclase activator 2B)	2	-0.197	78	-0.197	91.8
45	GUCA2B (guanylate cyclase activator 2B)	3	-1.87	44.7	-2.13	87.5
46	RPAP1 (RNA polymerase II associated protein 1)	1	0.471	91.3	0.17	97.5
47	RPAP1 (RNA polymerase II associated protein 1)	2	-1.44	53.2	-1.7	93
48	RPAP1 (RNA polymerase II associated protein 1)	3	-1.11	59.8	-1.08	88.7
49	CA9 (carbonic anhydrase 9)	1	-2	42	-2.14	82.5
50	CA9 (carbonic anhydrase 9)	2	0.803	97.9	0.722	90.4
51	CA9 (carbonic anhydrase 9)	3	-2.6	30.2	-4.02	97.4
52	BBS4 (Bardet-Biedl syndrome 4)	1	-0.455	72.8	-0.517	93.3
53	BBS4 (Bardet-Biedl syndrome 4)	2	1.14	105	0.525	102
54	BBS4 (Bardet-Biedl syndrome 4)	3	1.21	106	0.518	103
55	PDCL3 (phosducin like 3)	1	1.41	110	1.5	82.7
56	PDCL3 (phosducin like 3)	2	2.31	128	2.45	74.9
57	PDCL3 (phosducin like 3)	3	0.997	102	1.95	68.1
